PubChem BioAssay AID1508588, Peter MacCallum Cancer Centre | 2020
Test: 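Knock-downs boosting vemurafenib effects on melanoma cell growth or lactate release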 (primary screen). Cell system: human WM266.4 melanoma cells (BRAF V600 mutant). Knock-down reagent: siRNA pool against human genes, 40 nM. Time to read-out: 96 h from transfection to read-out. Treatment: vemurafenib 300 nM (about IC25), added 48 h after transfection, for 48 h; comparison arm got DMSO vehicle only. Measured: 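Ratios to non-targeting siRNA for cell gain, counted as DAPI nuclei after minus before drug and averaged over two replicates, and for absorbance-read medium lactate per cell; both binned into fold-change classes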. Scale: cell gain with vemurafenib: higher = more cell gain than with non-targeting siRNA; lactate per cell with vemurafenib: higher = more lactate made per cell. Hit rule: 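Enhancement is called by pairing each knock-down's vehicle-arm and drug-arm fold-change classes for viability or glycolysis; which class combinations qualify is not given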. Calls: active = enhances vemurafenib effect; inactive = no enhancement seen.
In all, the deposit lists about 18,000 reagents; this is a random part of them. 790 of them (4.4%) were called active. 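Calls rest on a combination of fold-change classes in drug and vehicle arms, not all shown here.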 Unmarked entries are inactive.

Target gene,cell gain with vemurafenib,lactate per cell with vemurafenib
FEN1,0.53,0.93
SLC25A36,0.2,1.91
CALD1,1.11,0.48
ABHD1,0.87,0.96
TMEM79,0.78,0.78
GPATCH3,0.45,1.06
KCTD4,0.57,0.43
KLHL41,0.74,0.64
H2AC21,1.27,0.76
MCAM,0.86,0.74
CINP,0.26,0.62
CCNT2,0.45,1.43
HSF4,0.79,0.84
CXCL17,0.36,0.94
CDKL3,0.94,0.64
BRAT1,1.34,1.05
OR12D2,0.82,0.24
USH1C,0.49,0.72
CSNK1G2-AS1,0.84,0.77
ABHD17A,0.71,0.94
PICALM,1,0.61
LSMEM2,0.67,0.8
OVOL1,0.53,1.25
DYNLL1,0.62,1.14
CNTFR,0.85,0.74
ERCC4,0.27,0.8
BTBD9,0.96,0.5
ADGRF4,0.88,1.9
DNAJA1,0.57,0.52
ARL4D,0.38,1.83
ZNF407,0.34,0.84
KCTD11,0.27,2.39
PRAM1,0.44,1.86
C21orf91,1.31,0.45
SPRY3,0.6,1.07
BCL7C,0.69,0.49
CD200R1L,0.72,0.78
KRTAP8-1,0.91,0.8
RTL5,0.68,0.98
RPS6KC1,0.85,0.79
GTSE1,0.38,0.66
CYLC2,0.87,0.64
ZNF57,1.06,0.74
PODXL,0.82,0.56
NFE2,0.74,1.09
TIAL1,0.91,0.82
ZNF222,0.81,0.61
SLC6A7,0.34,0.2
GJC2,0.37,1.84
BSPRY,0.44,0.86
SLC30A7,0.53,1.02
CRISPLD2,0.11,1.27

Next part (12 carried over from the part before).
Target gene,cell gain with vemurafenib,lactate per cell with vemurafenib
GTSE1,0.38,0.66
CYLC2,0.87,0.64
ZNF57,1.06,0.74
PODXL,0.82,0.56
NFE2,0.74,1.09
TIAL1,0.91,0.82
ZNF222,0.81,0.61
SLC6A7,0.34,0.2
GJC2,0.37,1.84
BSPRY,0.44,0.86
SLC30A7,0.53,1.02
CRISPLD2,0.11,1.27
FGFR1,0.38,0.3
CALM2,0.13,0.76
ZNF697,0.13,0.9
SPP1,0.73,1.54
RAB7B,0.38,1.42
SLC6A6,0.58,0.92
GDPD3,0.74,0.54
SLC27A5,0.95,0.92
FBXO40,0.41,1.06
SPAG1,-0.13,1.82
KLHL21,0.52,1.18
TMEM177,0.31,0.77
ACOT7,0.56,0.7
PKD2L1,0.25,2.07
LNPK,0.37,1.82
KCNH5,0.53,1.72
TBPL2,0.91,1.44
PMS1,0.59,0.66
BCCIP,0.41 (active),0.46
ARRB1,0.73,1.14
GCLC,0.47,1.21
TAP1,0.37,0.76
DEDD,0.66,0.45
DDX3Y,1.11 (active),0.18
AGTR2,0.64,0.25
HCLS1,0.81,0.7
TUSC3,1.19,0.56
SHC2,0.77,0.78
PRRC1,0.82,0.9
ESPN,0.23,1.56
APOBR,0.29,1.55
GJA8,0.47,0.28
